The record followed here is US20100062464A1, “OXIDATIVE CHROMOGENIC COMPOUND OR SALT THEREOF AND PRODUCTION METHOD THEREOF, AND REAGENT COMPOSITION AND TEST INSTRUMENT USING THE SAME” (Terumo Kabushiki Kaisha, priority 2007, published 2010).

The nature of the data set: Standard curve from reflection-absorbance, measurement sensitivity (Example 8). The settings on record: human blood, hematocrit 40%, 50, 100, 400, 600 mg/dL glucose; lower slope means higher sensitivity; FIG. 4.

For the compound `Cc1c(N)c(=O)n(-c2ccc(C(=O)O)cc2)n1C` [CP1, 4-amino-1-(4-carboxyphenyl)-2,3-dimethyl-5-pyrazolone], the “Slopes of the standard curves (measurement sensitivity)” value was “decrease as compared with that of 4-AA”.
With `Cc1c(N)c(=O)n(-c2ccc(S(=O)(=O)O)cc2)n1C` [CP2, 4-amino-1-(4-sulfophenyl)-2,3-dimethyl-5-pyrazolone] the entry was “decrease as compared with that of 4-AA”.
